No constants are given. Whether binding was seen depends on the method and setting. Binding seen in cells or lysates may run through a third protein. A result given as binding can be weak or reduced; the word gives no strength. Tags and fused reporters may be left off the sequences shown.
Target: flag-pig-HSPA8 (pig)
Assay: co-IP; 293T cells cotransfected; flag-tagged HSPA8 immunoprecipitated with flag antibody, Sepharose A/G beads; Western blot with anti-flag and anti-GFP

B1: EGFP-C3-M41-RBD (domain or fragment, UniProt P12651 19-272)
chain: ALYDSSSYVYYYQSAFRPPNGWHLHGGAYAVVNISSESNNAGSSPGCIVGTIHGGRVVNASSIAMTAPSSGMAWSSSQFCTAHCNFSDTTVFVTHCYKYDGCPITGMLQKNFLRVSAMKNGQLFYNLTVSVAKYPTFKSFQCVNNLTSVYLNGDLVYTSNETTDVTSAGVYFKAGGPITYKVMRKVKALAYFVNGTAQDVILCDGSPRGLLACQYNTGNFSDGFYPFINSSLVKQKFIVYRENSVNTTFTLHNF
  binding: binds
